The experiment deals with KCMF1–3×Flag (wild type) (human) (UniProt Q9P0J7). As to the kind of experiment: affinity purification with mass spectrometry; anti-Flag M2 IP of KCMF1-3×Flag transfected in WT or ΔUBR4 HEK293T cells, 0.2% NP-40 lysis.

Protein sequences, listed by entry. Tags and fused reporters are not part of them.
UniProt Q9P0J7: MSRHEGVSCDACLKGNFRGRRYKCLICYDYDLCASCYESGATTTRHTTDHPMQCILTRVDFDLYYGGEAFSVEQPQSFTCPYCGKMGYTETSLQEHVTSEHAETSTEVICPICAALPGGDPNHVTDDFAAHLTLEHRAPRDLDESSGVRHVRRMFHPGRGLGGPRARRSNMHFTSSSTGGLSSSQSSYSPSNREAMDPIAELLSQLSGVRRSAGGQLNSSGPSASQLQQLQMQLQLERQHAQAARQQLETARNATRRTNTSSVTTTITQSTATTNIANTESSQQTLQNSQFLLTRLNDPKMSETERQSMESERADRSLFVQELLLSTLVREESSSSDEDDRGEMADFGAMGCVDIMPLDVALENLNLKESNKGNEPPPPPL

These are yes or no findings as the source states them, for the method shown. In cells and extracts the contact can be indirect. These calls come from enrichment with a bait or labelling near it, and not all partners need be listed.

B1: NIPSNAP3A (endogenous) (protein, UniProt Q9UFN0 1-247)
chain: MLVLRSALTRALASRTLAPQMCSSFATGPRQYDGIFYEFRSYYLKPSKMNEFLENFEKNAHLRTAHSELVGYWSVEFGGRMNTVFHIWKYDNFAHRTEVRKALAKDKEWQEQFLIPNLALIDKQESEITYLVPWCKLEKPPKEGVYELATFQMKPGGPALWGDAFKRAVHAHVNLGYTKLVGVFHTEYGALNRVHVLWWNESADSRAAGRHKSHEDPRVVAAVRESVNYLVSQQNMLLIPTSFSPLK
For B1, the binding entry is on record as “binds”.

The values above are taken from PMC12286842.
